# Assay results reported in EP2067489B1, “Glyco-molecular imaging method for grade classification of liver fibrosis and its glyco-molecular imaging agent thereof” (Institute of Nuclear Energy Research Atomic Energy Council, priority 2007, dated 2009).
# For at least one compound, name, drawing or mass did not settle the structure.
# Test: Storage stability at room temperature
# Format: physicochemical
# Details: stability to air and water-deliquescence
smiles,measurement,value
"O=C(CN(CCSC(c1ccccc1)(c1ccccc1)c1ccccc1)CC(=O)ON1C(=O)CCC1=O)NCCSC(c1ccccc1)(c1ccccc1)c1ccccc1 [SOCTA, succinimidyl-3,6-diaza-5-oxo-3-[2-((triphenyl-methyl)thio)ethyl]-8-[(triphenylmethyl)-thio]octanoate]",storage time in room temperature,more than one year
